Earlier results as cited in PMC12181400, “Leveraging viral genome sequences and machine learning models for identification of potentially selective antiviral agents” (Communications Chemistry, 2025).

Legend:
[1] = test system: cell viability (tox21-ar-mda-kb2-luc-agonist-p3); details: cited from earlier work
[2] = test system: cell viability (tox21-ar-mda-kb2-luc-antagonist-p2); details: cited from earlier work

CCN(Cc1ccncc1)C(=O)C(CO)c1ccccc1 (centres unmarked) [Tropicamide]
tox21-ar-mda-kb2-luc-agonist-p3-viability (curve rank) [1]: 0 | tox21-ar-mda-kb2-luc-antagonist-p2-viability (curve rank) [2]: 0
